Results taken from PubChem BioAssay AID1671190 (National Center for Advancing Translational Sciences (NCATS), 2021).
Values joined by “and” are separate entries in the source; they are usually repeats but may differ in a detail not shown here. Identical values can stand only once. Out of some 580,000 compounds screened, about 6,100 (1.1%) were called active. Inconclusive means that the source gave no clear call. Such entries were picked first, then a sample of the others. Calls follow the shape of the dose curve; as a rule, active = well fitted inhibition curve with a large enough effect; inconclusive = small, poorly fitted or top-dose-only effect, or another doubt; inactive = no such curve, though single readings can be large or run the other way. Potencies of inconclusive entries are doubtful fits and often do not repeat.

Amino acid sequences for entries named in this document (tags omitted). A change or cut given only in a name is not applied to a line headed by its entry.
UniProt P18054: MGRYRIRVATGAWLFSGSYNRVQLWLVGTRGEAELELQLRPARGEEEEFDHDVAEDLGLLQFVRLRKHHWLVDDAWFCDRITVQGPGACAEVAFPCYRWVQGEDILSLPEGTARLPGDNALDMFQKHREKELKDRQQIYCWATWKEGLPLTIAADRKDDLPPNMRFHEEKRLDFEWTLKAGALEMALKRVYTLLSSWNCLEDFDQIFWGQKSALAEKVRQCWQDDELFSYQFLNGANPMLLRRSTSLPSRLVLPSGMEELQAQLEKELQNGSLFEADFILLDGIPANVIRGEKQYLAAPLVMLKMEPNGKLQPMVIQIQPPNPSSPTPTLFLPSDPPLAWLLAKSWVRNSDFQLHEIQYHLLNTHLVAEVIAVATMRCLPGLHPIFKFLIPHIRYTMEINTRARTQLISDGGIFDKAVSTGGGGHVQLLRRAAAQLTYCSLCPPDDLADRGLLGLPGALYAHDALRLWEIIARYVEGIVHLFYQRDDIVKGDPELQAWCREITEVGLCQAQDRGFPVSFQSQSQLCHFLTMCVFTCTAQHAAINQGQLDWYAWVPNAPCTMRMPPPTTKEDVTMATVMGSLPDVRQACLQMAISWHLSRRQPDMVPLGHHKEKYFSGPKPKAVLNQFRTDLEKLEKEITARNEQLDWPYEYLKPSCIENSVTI

What follows are compounds tested against Polyunsaturated fatty acid lipoxygenase ALOX12 (Homo sapiens) (UniProt P18054) (assay: Primary qHTS assay for inhibitors of human arachidonate 12S-lipoxygenase (ALOX12): Round 2). Details: purified 12hLO, xylenol orange hydroperoxide absorbance; activity change, negative = inhibition: at 108 µM (top of the series) unless noted.
Method in brief: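 Purified human 12hLO at 150 nM in 25 mM Hepes, 0.01% Triton X-100, pH 7.0, preincubated 15 min at room temperature with compound. Reaction started with 40 uM arachidonic acid, 30 min at room temperature. Hydroperoxide measured by Fe-xylenol orange, 573/405 nm absorbance ratio.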
% is scaled to controls: 0 for no effect and ±100 for the full control effect; potency is read from the fitted curve at half-maximal effect.

SMILES	Potency	activity change, negative = inhibition
COc1ccc(/C=N/OCc2ccc(Cl)cc2Cl)c(OC)c1	inconclusive: 56.2 µM [inhibitor, partial curve, poor fit]	
COC(=O)c1cc(C2CC2)nc2onc(-c3ccc(F)cc3)c12	inactive	
COCCN1CCCN(C(=O)c2cc(C)ccc2C)c2ccccc21	inactive	
O=c1cnc2cnc(Nc3ccccc3)nc2n1C1CC1	inconclusive: 35.5 µM [inhibitor, single point]	
CCOc1ccc(CCN2C(=S)N([C@@H](CC(C)C)CN3CCCC3CN3C(=S)NC[C@@H]3CC(C)C)C[C@@H]2Cc2ccccc2)cc1 (some centres not stated)	active: 14.1 µM	
CN(CCOC(=O)c1ccc(F)cc1)C(C)(C)C	inactive	
O=C(O)c1ccc(-n2nc(-c3ccccc3)c3ccccc3c2=O)cc1	inconclusive: 44.7 µM [inhibitor, partial curve, poor fit]	
CC(Sc1ccc(Cl)cc1)c1nc(-c2ccco2)no1 (configuration not stated)	inconclusive: 31.6 µM [inhibitor, partial curve, poor fit]	
COc1cc(CNc2ccc3c(c2)CCC3)cc(OC)c1O	active: 1.12 µM	
CCN(Cc1ccccc1)C(c1ccc(C)cc1)c1nnnn1C(C)(C)C (configuration not stated)	inconclusive: 44.7 µM [inhibitor, partial curve]	
C=CCn1c(SCC(=O)Nc2sc3c(c2C#N)CCC3)nnc1C1COc2ccccc2O1 (configuration not stated)	inactive	
O=C(Nc1ccccc1)Nc1ccccc1Br	active: 11.2 µM	
CCOc1ccccc1-c1nc(-c2ccc(-c3ccccc3)nc2OCC)no1	inconclusive: 112 µM [inhibitor, partial curve, poor fit]	
O=C(Cn1cccc1-c1nc(-c2ccc(F)cc2)no1)NC1CCCCC1	inconclusive: 44.7 µM [inhibitor, partial curve, poor fit]	
CN1CC(=O)N(C2CCCNC2)Cc2c1ncnc2N1CCCN(Cc2ccccc2)CC1 (configuration not stated)	inconclusive: 6.31 µM [inhibitor, full curve]	
CCCCCc1ccc(OCCCC[n+]2ccc(C)cc2)c(CCCCC)c1	inconclusive: 50.1 µM [inhibitor, partial curve, poor fit]	
Cc1ccc(Nc2c3c(nc4nncn24)CCC3)cc1	inactive	
COc1ccccc1Nc1c2c(nc3ccc(NC(=O)/C=C/c4cccc(OC)c4OC)cc13)CCCC2	inactive	
N#Cc1ccc(CN2CC(Oc3ccc4c(c3)OCO4)C2)cc1	inconclusive: 39.8 µM [inhibitor, partial curve]	
O=C(O)CCN1C(=O)/C(=C2\C(=O)N(Cc3ccc(F)cc3)c3ccccc32)SC1=S	inconclusive: 79.4 µM [inhibitor, partial curve, poor fit]	
O=C(CSc1nc2ccc(N=Cc3c4ccccc4cc4ccccc34)cc2s1)NCCc1ccccc1	inactive	
COc1ccc(CN2CCN(CCSc3ccc(C)cc3)CC2)c(OC)c1OC	inconclusive: 0.447 µM [inhibitor, full curve, poor fit]	
Cc1cc(C)c(NC(=O)C2=CCN(S(=O)(=O)c3ccc(F)cc3)CC2)c(C)c1	inactive	

SMILES	Potency	activity change, negative = inhibition
CCc1ccc(C(=O)c2cn(CC(=O)Nc3cccc(OC)c3)c3ccc(OC)cc3c2=O)cc1	inactive	
Cc1ccc(S(=O)(=O)C(C#N)c2nc3ccccc3nc2N2CCC(C)CC2)cc1 (configuration not stated)	inconclusive: 2.24 µM [inhibitor, full curve, poor fit]	
Cc1cc(N(C)/N=C/c2ccccc2O)nc(-c2ccccc2O)n1	inactive	
Cc1cc2oc(C(=O)Nc3ccc(S(N)(=O)=O)cc3)cc(=O)c2cc1C	inconclusive: 0.447 µM [inhibitor, full curve, poor fit]	
CC1=NOC(=O)/C1=C\c1ccc2c(c1)OCO2	inconclusive: 28.2 µM [inhibitor, partial curve, poor fit]	
CN(C)CCCN(C(=O)COc1ccccc1)c1nc2ccc(Cl)cc2s1	inconclusive: 112 µM [inhibitor, single point] and inconclusive: 44.7 µM [inhibitor, partial curve, poor fit]	
O=C(c1cc2ccccc2oc1=O)N1CCN(c2ccc(Cl)cc2)CC1	inconclusive: 0.224 µM [inhibitor, full curve, poor fit]	
O=C(C1CC1)N1N=C(c2ccc(F)cc2)CC1(O)C(F)(F)F (configuration not stated)	inconclusive: 39.8 µM [inhibitor, partial curve]	
COc1ccccc1NC(=O)Cc1nnc(SCC(=O)NC2CCCCC2C)n1C (configuration not stated)	inactive	
O=c1[nH]c2cc3ccccc3cc2nc1-c1nnnn1Cc1ccccc1	inconclusive: 3.55 µM [inhibitor, full curve, poor fit]	
O=C1CC(C(=O)Nc2ccc(O)c(C(=O)O)c2)C(c2ccccc2)O1 (configuration not stated)	inconclusive: 35.5 µM [inhibitor, partial curve, poor fit]	
Nn1c(SCc2cccc(S(=O)(=O)N3CCOCC3)c2)nnc1-c1ccc(Cl)cc1	inconclusive: 31.6 µM [inhibitor, single point]	
COc1ccc(C(C)=O)c(Oc2cc(NN3CCCCC3)c([N+](=O)[O-])cc2[N+](=O)[O-])c1	inconclusive: 126 µM [inhibitor, single point]	
COc1ccc(C2Cn3nnc(C(=O)N4CCC(C(=O)Nc5cccc(Cl)c5)CC4)c3CO2)cc1 (configuration not stated)	inconclusive: 79.4 µM [inhibitor, single point]	
CC(C)C(=O)NC(c1ccc([N+](=O)[O-])cc1)c1c(O)ccc2ccccc12 (configuration not stated)	inconclusive: 56.2 µM [inhibitor, partial curve, poor fit]	
Cc1cc(NC(=O)CSc2nnc(-c3ccco3)n2Cc2ccccc2)no1	inactive	
O=C(COc1cc(O)c2c(=O)cc(-c3ccccc3)oc2c1)NCCCO	inactive	
Cc1ccccc1CNC(=O)c1cc2c(s1)CCCC2	inconclusive: 89.1 µM [inhibitor, single point]	
CC1CCC(NC(=O)Cn2c(=O)[nH]c3ccsc3c2=O)CC1 (configuration not stated)	inactive	
Cc1ccc(NC(=O)Cn2ccsc2=N)c([N+](=O)[O-])c1	inconclusive: 44.7 µM [inhibitor, partial curve, poor fit]	
Cc1ccc(C)c(-c2cc(C(=O)NN3CCOCC3)c3ccccc3n2)c1	inactive	
CCc1cccc(NC(=O)CN2C(=O)COc3ccc(S(=O)(=O)Nc4ccccc4)cc32)c1	inconclusive: 141 µM [inhibitor, partial curve, poor fit]	
CCCSc1nc2c(c(=O)[nH]c(=O)n2C)n1Cc1ccccc1Cl	inconclusive: 35.5 µM [inhibitor, single point]	

SMILES	Potency	activity change, negative = inhibition
O=[N+]([O-])c1cccc2c1ccc1ncccc12	inactive	
O=C(COC(=O)Cc1c[nH]c2ccccc12)Nc1cc(S(=O)(=O)N2CCOCC2)ccc1Cl	inactive	
COc1cc(C(=O)Nc2ccccc2N2CCOCC2)ccc1OCC(=O)N1CCOCC1	inactive	
Cc1noc2ncc(C(=O)Oc3ccc4cc(Br)ccc4c3)cc12	inconclusive: 3.16 µM [inhibitor, full curve, poor fit]	
Cc1cccc(C)c1Nc1nnc(SCC(=O)NCCCN2CCCC2=O)s1	inconclusive: 100 µM [inhibitor, single point]	
COc1ccc(C(=O)NC[C@H]2O[C@@H](CO)[C@@H](O)[C@H]2N2CCN(c3cccc(C(F)(F)F)c3)CC2)cc1	inconclusive: 15.8 µM [inhibitor, full curve]	
CCN(CC)C(=O)CSc1nc2ccsc2c(=O)n1C	inconclusive: 25.1 µM [inhibitor, partial curve, poor fit]	
CC(=O)N1CCC(=O)Nc2ccc([N+](=O)[O-])cc21		inconclusive: -32.4% [inhibitor]
Cc1c(C(=O)OCCN2CCCCC2)oc2ccccc12	inconclusive: 100 µM [inhibitor, single point]	
COc1ccccc1NC(=O)NOCc1ccccc1	inactive	
COc1cccc(Cn2c(=O)c(-c3ccc(F)cc3)nc3cnc(N(C)C)nc32)c1	inconclusive: 35.5 µM [inhibitor, single point]	
O=c1c2c3c(sc2[nH]c(=S)n1Cc1ccco1)CCC3	inconclusive: 89.1 µM [inhibitor, partial curve, poor fit]	
C[C@@H](NC(=O)N1CCOC[C@H]1c1ncc(-c2ccc(Cl)cc2)[nH]1)c1ccccc1	inconclusive: 63.1 µM [inhibitor, partial curve, poor fit]	
O=C(Nc1ccc(F)c(Cl)c1)c1cc2n(n1)CC(c1ccc(Cl)cc1)OC2 (configuration not stated)	inconclusive: 39.8 µM [inhibitor, partial curve, poor fit]	
CC(NC(=O)c1ccc2c(c1)CCN2S(C)(=O)=O)c1ccccc1 (configuration not stated)	inconclusive: 50.1 µM [inhibitor, partial curve, poor fit]	
CC1(C)CC(NC(=S)Nc2ccccc2)CC(C)(CNC(=S)Nc2ccccc2)C1 (configuration not stated)	active: 28.2 µM	
CCCCCCNC(=O)c1cccc2ncccc12	inactive	
COc1cc(OC)cc(-c2onc(C)c2C(=O)NC2Cc3ccccc3C2)c1	inconclusive: 14.1 µM [inhibitor, full curve]	
Cc1cc2oc(=O)sc2cc1NS(=O)(=O)c1ccccc1	inconclusive: 89.1 µM [inhibitor, single point]	
O=C(/C=C/c1cccc2ccccc12)c1cccs1	inconclusive: 63.1 µM [inhibitor, partial curve, poor fit]	
Nc1nc(N)nc(-c2cc(O)ccc2O)n1	inactive	
